Measured values: US8841274B2, “Protein arginine N-methyltransferase-5 method of cancer treatment” (priority 2009, dated 2014)

Each substance was assayed on U2OS cells (assay: Cyclohexamide half-life assay). Details: 100 μg/ml cyclohexamide, 0-6 h, n=2.
Type: cell-based
In the case of “KK: methylation-defective E2F-1 protein containing the mutations R111K and R113K”, the half-life is reported as 1.25 h. “KKK: methylation-defective E2F-1 protein containing the mutations R109K, R111K and R113K” was tested, and the half-life was 1.25 h. “wild-type E2F-1: E2F-1 protein, SEQ ID NO:3, used as GST fusion or HA-tagged expression vector” gave a half-life of 0.417 h.
